{"sequences": {"note": "Chains of the proteins cited; added tags and fusions are not shown. Lines headed by an entry give the natural chain unless they say otherwise; changes in a name come on top.", "UniProt Q9NX47": "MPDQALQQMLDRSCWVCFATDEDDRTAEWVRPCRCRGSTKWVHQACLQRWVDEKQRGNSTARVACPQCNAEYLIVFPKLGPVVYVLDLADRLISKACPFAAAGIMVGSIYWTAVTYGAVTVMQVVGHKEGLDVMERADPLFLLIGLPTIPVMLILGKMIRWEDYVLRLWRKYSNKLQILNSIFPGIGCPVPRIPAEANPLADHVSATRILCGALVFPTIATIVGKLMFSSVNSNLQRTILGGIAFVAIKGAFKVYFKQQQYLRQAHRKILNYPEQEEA", "UniProt Q03111": "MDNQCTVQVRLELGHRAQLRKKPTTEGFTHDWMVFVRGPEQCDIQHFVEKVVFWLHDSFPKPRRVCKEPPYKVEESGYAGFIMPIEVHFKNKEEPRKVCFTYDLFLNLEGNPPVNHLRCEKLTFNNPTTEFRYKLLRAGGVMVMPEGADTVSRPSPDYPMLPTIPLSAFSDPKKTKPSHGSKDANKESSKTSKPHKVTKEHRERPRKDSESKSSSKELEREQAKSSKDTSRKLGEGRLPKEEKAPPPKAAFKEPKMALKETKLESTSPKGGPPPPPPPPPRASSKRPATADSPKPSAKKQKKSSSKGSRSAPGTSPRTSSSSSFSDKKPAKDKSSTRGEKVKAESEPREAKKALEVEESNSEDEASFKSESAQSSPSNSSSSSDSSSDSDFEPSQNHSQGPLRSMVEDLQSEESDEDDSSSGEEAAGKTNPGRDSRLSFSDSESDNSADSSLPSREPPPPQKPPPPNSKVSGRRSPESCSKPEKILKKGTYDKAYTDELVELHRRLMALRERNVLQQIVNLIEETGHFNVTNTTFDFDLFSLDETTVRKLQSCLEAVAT", "UniProt Q9BV86": "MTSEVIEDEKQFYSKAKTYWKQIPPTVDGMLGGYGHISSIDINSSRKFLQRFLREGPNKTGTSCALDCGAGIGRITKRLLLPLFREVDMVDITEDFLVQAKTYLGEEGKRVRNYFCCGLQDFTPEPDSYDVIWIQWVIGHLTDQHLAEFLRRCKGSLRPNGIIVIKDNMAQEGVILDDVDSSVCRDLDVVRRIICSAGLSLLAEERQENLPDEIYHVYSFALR", "UniProt Q9UH92": "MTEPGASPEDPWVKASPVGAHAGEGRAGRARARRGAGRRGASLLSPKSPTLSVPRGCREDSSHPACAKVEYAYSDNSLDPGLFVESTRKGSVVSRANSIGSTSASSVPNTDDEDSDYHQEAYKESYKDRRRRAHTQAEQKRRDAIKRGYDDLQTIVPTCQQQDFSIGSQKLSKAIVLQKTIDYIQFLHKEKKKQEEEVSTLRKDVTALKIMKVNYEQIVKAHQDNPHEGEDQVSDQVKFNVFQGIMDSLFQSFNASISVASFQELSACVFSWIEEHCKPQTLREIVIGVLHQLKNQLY", "UniProt Q96PE7": "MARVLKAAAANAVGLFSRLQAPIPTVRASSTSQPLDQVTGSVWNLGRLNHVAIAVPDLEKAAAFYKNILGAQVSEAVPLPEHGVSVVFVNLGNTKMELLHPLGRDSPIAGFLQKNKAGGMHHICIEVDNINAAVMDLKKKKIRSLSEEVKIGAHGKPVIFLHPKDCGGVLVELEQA", "UniProt Q99759": "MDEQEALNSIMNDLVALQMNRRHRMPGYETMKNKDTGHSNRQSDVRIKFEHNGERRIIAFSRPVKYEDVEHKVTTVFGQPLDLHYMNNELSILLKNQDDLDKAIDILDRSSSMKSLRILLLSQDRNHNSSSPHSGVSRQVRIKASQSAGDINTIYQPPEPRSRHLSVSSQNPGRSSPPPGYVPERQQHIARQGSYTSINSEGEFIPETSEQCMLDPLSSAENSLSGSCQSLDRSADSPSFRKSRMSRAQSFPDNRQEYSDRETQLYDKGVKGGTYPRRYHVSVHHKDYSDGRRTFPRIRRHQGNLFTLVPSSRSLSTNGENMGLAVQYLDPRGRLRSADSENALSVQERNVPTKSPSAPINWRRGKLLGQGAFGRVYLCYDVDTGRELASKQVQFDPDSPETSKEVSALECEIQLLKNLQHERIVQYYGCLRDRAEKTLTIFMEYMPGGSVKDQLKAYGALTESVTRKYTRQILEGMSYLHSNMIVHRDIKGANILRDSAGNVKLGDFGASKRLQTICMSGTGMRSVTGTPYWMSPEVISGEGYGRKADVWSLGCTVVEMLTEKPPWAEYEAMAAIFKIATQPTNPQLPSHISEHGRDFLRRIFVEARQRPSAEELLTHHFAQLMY", "UniProt Q96HR3": "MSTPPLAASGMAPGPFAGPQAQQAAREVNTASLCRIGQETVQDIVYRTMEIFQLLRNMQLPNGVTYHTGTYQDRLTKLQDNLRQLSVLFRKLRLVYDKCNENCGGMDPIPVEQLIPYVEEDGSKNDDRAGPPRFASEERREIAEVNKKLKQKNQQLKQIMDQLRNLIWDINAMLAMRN", "UniProt P45985": "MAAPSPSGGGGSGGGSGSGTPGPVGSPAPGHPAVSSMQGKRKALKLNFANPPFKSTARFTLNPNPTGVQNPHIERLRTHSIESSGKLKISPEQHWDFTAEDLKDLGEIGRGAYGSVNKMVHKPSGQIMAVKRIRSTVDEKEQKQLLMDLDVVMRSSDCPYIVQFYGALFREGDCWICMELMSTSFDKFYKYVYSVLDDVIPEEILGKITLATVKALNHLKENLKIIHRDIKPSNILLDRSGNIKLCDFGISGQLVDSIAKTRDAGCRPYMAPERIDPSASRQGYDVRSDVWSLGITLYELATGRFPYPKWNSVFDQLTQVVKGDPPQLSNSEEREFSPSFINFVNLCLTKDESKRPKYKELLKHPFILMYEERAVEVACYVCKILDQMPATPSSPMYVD", "UniProt P25325": "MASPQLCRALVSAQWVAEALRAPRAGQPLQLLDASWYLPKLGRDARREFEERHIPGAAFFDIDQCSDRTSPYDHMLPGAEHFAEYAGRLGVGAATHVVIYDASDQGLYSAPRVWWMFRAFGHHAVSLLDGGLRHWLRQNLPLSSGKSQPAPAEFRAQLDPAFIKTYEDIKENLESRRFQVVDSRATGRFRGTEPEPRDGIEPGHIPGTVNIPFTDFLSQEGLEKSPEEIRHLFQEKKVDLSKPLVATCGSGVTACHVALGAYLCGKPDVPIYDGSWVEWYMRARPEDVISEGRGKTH", "UniProt Q15691": "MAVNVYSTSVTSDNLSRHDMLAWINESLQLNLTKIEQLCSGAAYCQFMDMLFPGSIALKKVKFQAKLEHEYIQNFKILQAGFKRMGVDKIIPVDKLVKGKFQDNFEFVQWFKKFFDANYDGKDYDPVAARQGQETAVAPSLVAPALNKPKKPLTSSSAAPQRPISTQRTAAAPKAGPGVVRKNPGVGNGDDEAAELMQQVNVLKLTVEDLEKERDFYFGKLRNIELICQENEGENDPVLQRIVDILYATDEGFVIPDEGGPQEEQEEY", "UniProt P34949": "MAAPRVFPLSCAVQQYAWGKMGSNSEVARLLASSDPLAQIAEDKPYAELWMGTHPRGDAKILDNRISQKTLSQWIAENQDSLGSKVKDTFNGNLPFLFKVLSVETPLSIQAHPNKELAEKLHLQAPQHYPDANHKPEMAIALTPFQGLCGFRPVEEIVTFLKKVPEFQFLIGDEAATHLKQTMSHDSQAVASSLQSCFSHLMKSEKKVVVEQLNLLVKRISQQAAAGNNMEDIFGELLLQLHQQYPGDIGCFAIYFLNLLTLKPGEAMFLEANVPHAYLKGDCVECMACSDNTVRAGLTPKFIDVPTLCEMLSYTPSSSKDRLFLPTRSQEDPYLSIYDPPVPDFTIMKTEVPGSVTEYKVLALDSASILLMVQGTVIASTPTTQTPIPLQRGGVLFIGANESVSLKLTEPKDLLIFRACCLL", "UniProt Q02078": "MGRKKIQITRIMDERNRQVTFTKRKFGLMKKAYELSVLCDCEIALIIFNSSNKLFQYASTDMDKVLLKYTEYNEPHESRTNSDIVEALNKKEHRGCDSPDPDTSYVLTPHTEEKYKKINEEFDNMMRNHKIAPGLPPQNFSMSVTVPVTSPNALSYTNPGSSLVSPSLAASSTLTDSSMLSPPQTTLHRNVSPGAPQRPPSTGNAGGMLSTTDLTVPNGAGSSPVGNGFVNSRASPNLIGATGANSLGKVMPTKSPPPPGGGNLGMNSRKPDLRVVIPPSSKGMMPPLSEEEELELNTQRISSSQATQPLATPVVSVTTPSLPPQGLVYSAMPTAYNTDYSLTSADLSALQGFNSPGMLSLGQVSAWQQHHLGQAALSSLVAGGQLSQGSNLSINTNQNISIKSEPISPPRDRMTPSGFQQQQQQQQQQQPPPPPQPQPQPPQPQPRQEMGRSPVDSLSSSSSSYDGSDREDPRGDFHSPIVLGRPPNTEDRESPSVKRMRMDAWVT", "UniProt P05164": "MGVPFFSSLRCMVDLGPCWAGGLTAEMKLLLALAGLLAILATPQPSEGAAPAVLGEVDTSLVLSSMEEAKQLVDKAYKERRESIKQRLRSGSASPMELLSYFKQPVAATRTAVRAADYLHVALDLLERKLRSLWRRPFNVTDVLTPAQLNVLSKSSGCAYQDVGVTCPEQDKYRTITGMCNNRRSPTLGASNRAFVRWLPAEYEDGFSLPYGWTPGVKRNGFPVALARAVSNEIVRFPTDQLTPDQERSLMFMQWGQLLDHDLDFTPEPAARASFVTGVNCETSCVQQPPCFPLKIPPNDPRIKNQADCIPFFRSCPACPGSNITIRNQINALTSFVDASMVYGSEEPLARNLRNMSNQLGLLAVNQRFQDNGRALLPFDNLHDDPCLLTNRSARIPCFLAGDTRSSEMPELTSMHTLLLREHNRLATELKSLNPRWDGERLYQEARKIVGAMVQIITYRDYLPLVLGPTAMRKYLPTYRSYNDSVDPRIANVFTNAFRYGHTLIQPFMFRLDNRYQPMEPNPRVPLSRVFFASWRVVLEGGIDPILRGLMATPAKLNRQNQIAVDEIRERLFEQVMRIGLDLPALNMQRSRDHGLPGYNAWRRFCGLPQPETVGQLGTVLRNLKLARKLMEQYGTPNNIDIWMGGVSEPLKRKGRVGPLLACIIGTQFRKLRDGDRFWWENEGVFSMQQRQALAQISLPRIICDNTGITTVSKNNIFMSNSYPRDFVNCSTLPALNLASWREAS", "UniProt Q9BTT4": "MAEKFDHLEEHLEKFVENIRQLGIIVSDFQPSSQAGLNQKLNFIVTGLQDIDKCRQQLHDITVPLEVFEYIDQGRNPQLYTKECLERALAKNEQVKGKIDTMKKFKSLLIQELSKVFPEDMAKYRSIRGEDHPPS", "UniProt P40926": "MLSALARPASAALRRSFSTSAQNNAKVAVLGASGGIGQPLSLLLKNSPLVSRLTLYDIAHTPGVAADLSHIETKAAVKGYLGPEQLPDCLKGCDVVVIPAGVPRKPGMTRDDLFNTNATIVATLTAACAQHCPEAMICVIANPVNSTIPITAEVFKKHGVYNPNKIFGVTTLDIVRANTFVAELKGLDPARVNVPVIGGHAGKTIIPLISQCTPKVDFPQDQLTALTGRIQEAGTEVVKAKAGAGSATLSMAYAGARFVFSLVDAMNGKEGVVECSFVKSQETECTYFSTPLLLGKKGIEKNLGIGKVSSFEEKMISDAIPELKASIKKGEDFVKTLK", "UniProt Q14728": "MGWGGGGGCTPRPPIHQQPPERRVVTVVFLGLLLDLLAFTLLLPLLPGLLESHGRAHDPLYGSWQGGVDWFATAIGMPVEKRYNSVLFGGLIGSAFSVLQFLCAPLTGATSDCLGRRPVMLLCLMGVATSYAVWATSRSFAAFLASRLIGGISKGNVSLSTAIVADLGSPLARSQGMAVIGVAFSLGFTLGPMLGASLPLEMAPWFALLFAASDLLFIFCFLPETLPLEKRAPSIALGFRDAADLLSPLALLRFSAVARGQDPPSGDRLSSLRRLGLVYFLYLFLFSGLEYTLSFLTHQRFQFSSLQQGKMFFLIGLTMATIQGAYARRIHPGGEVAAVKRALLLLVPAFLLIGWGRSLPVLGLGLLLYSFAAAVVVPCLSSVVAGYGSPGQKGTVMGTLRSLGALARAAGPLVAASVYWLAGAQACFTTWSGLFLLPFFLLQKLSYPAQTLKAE", "UniProt Q6IN84": "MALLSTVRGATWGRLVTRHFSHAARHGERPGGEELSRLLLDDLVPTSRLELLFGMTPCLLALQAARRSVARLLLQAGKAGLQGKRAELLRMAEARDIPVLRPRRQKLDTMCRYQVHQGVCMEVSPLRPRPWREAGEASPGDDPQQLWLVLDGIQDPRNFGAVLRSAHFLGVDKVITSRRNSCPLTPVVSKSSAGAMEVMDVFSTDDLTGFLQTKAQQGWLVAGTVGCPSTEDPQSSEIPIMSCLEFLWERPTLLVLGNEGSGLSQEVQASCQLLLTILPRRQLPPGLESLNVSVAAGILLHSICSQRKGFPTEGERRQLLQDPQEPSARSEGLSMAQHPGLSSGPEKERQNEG"}, "source": "the supplement of paper PMC7666118", "note": "The list shows a part of the results.", "data": [{"compound": "COc1ccc(Cn2ccc3ccc(C(=O)NO)cc32)cc1", "experiment": "dose-dependent thermal stabilisation call (2D-TPP, DLPTP, 10% FDR) (binary (1 = stabilised)); higher = stabilised by the compound", "details": "system: HL-60 intact cells; concentration range 0.04-10 µM", "values": [{"target": "MARCH5 (UniProt Q9NX47)", "dose-dependent thermal stabilisation call": "inactive: 0"}, {"target": "MBTPS1 (UniProt Q14703)", "dose-dependent thermal stabilisation call": "inactive: 0"}, {"target": "MRPL37 (UniProt Q9BZE1)", "dose-dependent thermal stabilisation call": "inactive: 0"}, {"target": "MRPL4 (UniProt Q9BYD3)", "dose-dependent thermal stabilisation call": "inactive: 0"}, {"target": "MED17 (UniProt Q9NVC6)", "dose-dependent thermal stabilisation call": "inactive: 0"}, {"target": "MLLT1 (UniProt Q03111)", "dose-dependent thermal stabilisation call": "inactive: 0"}, {"target": "MED26 (UniProt O95402)", "dose-dependent thermal stabilisation call": "inactive: 0"}, {"target": "METTL11A (UniProt Q9BV86)", "dose-dependent thermal stabilisation call": "inactive: 0"}, {"target": "MLX (UniProt Q9UH92)", "dose-dependent thermal stabilisation call": "inactive: 0"}, {"target": "MCEE (UniProt Q96PE7)", "dose-dependent thermal stabilisation call": "inactive: 0"}, {"target": "MON2 (UniProt Q7Z3U7)", "dose-dependent thermal stabilisation call": "inactive: 0"}, {"target": "MAP3K3 (UniProt Q99759)", "dose-dependent thermal stabilisation call": "inactive: 0"}, {"target": "MRPL52 (UniProt Q86TS9)", "dose-dependent thermal stabilisation call": "inactive: 0"}, {"target": "MRPS34 (UniProt P82930)", "dose-dependent thermal stabilisation call": "inactive: 0"}, {"target": "MICALL1 (UniProt Q8N3F8)", "dose-dependent thermal stabilisation call": "inactive: 0"}, {"target": "MRP63 (UniProt Q9BQC6)", "dose-dependent thermal stabilisation call": "inactive: 0"}, {"target": "MRPL55 (UniProt Q7Z7F7)", "dose-dependent thermal stabilisation call": "inactive: 0"}, {"target": "MED30 (UniProt Q96HR3)", "dose-dependent thermal stabilisation call": "inactive: 0"}, {"target": "MAP2K4 (UniProt P45985)", "dose-dependent thermal stabilisation call": "inactive: 0"}, {"target": "MRPS17 (UniProt Q9Y2R5)", "dose-dependent thermal stabilisation call": "inactive: 0"}, {"target": "MRPS22 (UniProt P82650)", "dose-dependent thermal stabilisation call": "inactive: 0"}, {"target": "MPST (UniProt P25325)", "dose-dependent thermal stabilisation call": "inactive: 0"}, {"target": "MELK (UniProt Q14680)", "dose-dependent thermal stabilisation call": "inactive: 0"}, {"target": "MAPRE1 (UniProt Q15691)", "dose-dependent thermal stabilisation call": "inactive: 0"}, {"target": "MPI (UniProt P34949)", "dose-dependent thermal stabilisation call": "inactive: 0"}, {"target": "MRPS21 (UniProt P82921)", "dose-dependent thermal stabilisation call": "inactive: 0"}, {"target": "MEF2A (UniProt Q02078)", "dose-dependent thermal stabilisation call": "inactive: 0"}, {"target": "MARK2 (UniProt Q7KZI7)", "dose-dependent thermal stabilisation call": "inactive: 0"}, {"target": "MRPL22 (UniProt Q9NWU5)", "dose-dependent thermal stabilisation call": "inactive: 0"}, {"target": "MPO (UniProt P05164)", "dose-dependent thermal stabilisation call": "inactive: 0"}, {"target": "MRPS31 (UniProt Q92665)", "dose-dependent thermal stabilisation call": "inactive: 0"}, {"target": "MED10 (UniProt Q9BTT4)", "dose-dependent thermal stabilisation call": "inactive: 0"}, {"target": "MRPL53 (UniProt Q96EL3)", "dose-dependent thermal stabilisation call": "inactive: 0"}, {"target": "MDH2 (UniProt P40926)", "dose-dependent thermal stabilisation call": "active: 1"}, {"target": "MFSD10 (UniProt Q14728)", "dose-dependent thermal stabilisation call": "inactive: 0"}, {"target": "MANEA (UniProt Q5SRI9)", "dose-dependent thermal stabilisation call": "inactive: 0"}, {"target": "MRM1 (UniProt Q6IN84)", "dose-dependent thermal stabilisation call": "inactive: 0"}, {"target": "MEPCE (UniProt Q7L2J0)", "dose-dependent thermal stabilisation call": "inactive: 0"}]}]}
